Test [1] has as its target mouse VEGFR2 on VEGFR2-overexpressing ECs (GM7373 cells) (mouse) (UniProt P35918). Description: ELISA; VEGFR2-overexpressing ECs incubated with 150 ng/mL of gremlin with or without 1.5 ug of VEGF-A165 for 2 hours at 4°C, washed with 2.0 M NaCl to remove gremlin bound to HSPGs, bound gremlin detected with anti-gremlin antibody; only the binder purified. Background: ELISA stands for enzyme-linked immunosorbent assay.

Chains of the proteins cited; added tags and fusions are not shown. Residues count along the entry.
UniProt P35918, residues 20-1345: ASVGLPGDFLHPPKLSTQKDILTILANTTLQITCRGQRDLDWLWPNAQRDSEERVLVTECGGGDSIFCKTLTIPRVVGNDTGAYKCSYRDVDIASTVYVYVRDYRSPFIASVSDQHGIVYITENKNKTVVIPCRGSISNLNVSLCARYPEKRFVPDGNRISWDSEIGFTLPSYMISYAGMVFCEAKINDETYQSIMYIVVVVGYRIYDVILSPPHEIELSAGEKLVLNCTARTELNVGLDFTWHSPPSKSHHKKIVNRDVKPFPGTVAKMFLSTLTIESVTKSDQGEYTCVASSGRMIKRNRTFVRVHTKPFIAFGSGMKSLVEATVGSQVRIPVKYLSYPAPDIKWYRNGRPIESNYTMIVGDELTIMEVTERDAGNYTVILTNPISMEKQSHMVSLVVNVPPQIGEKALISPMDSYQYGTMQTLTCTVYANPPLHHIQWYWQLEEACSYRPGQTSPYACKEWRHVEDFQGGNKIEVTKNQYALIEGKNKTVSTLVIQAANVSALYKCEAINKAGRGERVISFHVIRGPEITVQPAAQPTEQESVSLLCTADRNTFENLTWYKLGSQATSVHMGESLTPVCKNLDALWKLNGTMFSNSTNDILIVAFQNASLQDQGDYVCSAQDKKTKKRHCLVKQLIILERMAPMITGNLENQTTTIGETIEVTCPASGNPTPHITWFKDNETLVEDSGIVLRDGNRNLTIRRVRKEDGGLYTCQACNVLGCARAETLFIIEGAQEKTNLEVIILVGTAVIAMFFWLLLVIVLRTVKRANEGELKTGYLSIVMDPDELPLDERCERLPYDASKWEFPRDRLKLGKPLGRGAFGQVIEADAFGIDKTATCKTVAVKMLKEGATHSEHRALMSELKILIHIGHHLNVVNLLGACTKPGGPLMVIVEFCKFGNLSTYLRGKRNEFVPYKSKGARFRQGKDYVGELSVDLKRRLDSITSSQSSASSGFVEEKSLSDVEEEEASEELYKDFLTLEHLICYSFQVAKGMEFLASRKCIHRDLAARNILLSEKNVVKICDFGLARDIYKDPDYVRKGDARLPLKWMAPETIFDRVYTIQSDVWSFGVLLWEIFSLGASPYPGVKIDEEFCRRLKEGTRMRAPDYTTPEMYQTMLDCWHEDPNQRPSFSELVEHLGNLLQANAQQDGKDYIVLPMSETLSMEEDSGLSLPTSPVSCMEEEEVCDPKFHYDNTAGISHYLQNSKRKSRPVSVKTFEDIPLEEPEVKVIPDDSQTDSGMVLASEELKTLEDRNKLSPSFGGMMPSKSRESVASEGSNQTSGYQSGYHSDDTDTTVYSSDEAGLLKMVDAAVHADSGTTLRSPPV

The target of test [2] is T1, his-tagged gremlin^C141A mutant, rat (rat, UniProt O35793 25-184, C141A).
T1 construct: secreted into the medium; monomer; also called gremlin^C141A monomer; monomeric gremlin^C141A; not shown: His tag, C-terminal, kept
T1 sequence (looked up): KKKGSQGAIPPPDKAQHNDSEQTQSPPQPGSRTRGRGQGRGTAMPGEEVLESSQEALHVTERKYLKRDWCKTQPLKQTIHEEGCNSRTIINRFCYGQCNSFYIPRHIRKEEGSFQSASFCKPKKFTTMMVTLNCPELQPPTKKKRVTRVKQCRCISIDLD
The test can be described thus: cross-linking; 0.05% glutaraldehyde for 20 minutes at RT, SDS-PAGE under reducing conditions, anti-gremlin WB; both purified.

The target in test [3] is T1, his-tagged gremlin^C141A mutant, rat. Description: non-reducing SDS-PAGE with Western blot; recombinant his-tagged gremlin purified by IMAC (and heparin-affinity chromatography), SDS-PAGE without beta-mercaptoethanol, anti-gremlin WB, silver staining; both purified. A general note: Immunoblotting shows a protein as a band on a membrane.

Residue numbers refer to the chain shown, from its start. Names and notes keep the numbering of the source. Results are given in words; binding and its absence hold for the method and conditions named. Some entries that bind do so weakly or less than the wild type. Tags and fused reporters may be left off the sequences shown.

B1: his-tagged wild-type gremlin (gremlin^WT), rat (natural protein, UniProt O35793 25-184, looked up)
chain: T1 sequence (looked up) with A117C
notes: secreted into the medium; covalent homodimer through Cys141; The IMAC-purified preparation holds monomer and dimer (used for non-reducing SDS-PAGE and SEC); the heparin 1.2 M NaCl fraction holds only the disulfide-linked dimer (98.5% purity) and is the form used in ELISA, SPR and cell assays; N-glycosylated and non-glycosylated forms are present; also called gremlin^WT dimer; dimeric gremlin^WT; …
Consider B1, for which the binding result in test [1] is “binds”.

B2: his-tagged gremlin^C141A mutant, rat (protein, UniProt O35793 25-184)
chain: T1 sequence (looked up)
For B2, the binding entry is listed as “no binding” in test [2], “binds” in test [1] and “no binding” in test [3].

Source of the values: PMC5085234, “Monomeric gremlin is a novel vascular endothelial growth factor receptor-2 antagonist” (Oncotarget, 2016).
